Test results taken from the supplement of paper PMC5949888.
Most values lie at the floor of the assay. Slopes are relative: functional sequences can read slightly below zero.

These substances were tested on Saccharomyces cerevisiae PS128 hsf1 delta, HSF1(1-493) fusion (assay: growth estimate (transactivation domain function in HSF1 fusion, heat-shock survival) (a.u. (slope of normalised read count over time)); higher = stronger growth at 37°C, i.e. more transactivation activity). Settings: library: random library.
For GRVVEEKILRAAEPSRNDGK, the growth estimate was < -0.25.
With RQWAA the growth estimate was < -0.25.
With RSGRRVPLTSSAYARVIDDR the growth estimate was < -0.25.
For PLELSL, the growth estimate was < -0.25.
LQRECHVSVTHLPNIFGLRS was tested, and the growth estimate was < -0.25.
In the case of THESGPSYFASPTALFILGP, the growth estimate is reported as < -0.25.
KEKRQGSKLEAAWYSRPRYR was tested, and the growth estimate was < -0.25.
Substance PMVGGLSCCVAGRVELMSSD has a growth estimate of 0.0112.
In the case of ACVPVELLVAICNSALGARD, the growth estimate is reported as < -0.25.
With EDRE the growth estimate was < -0.25.
FPSFVRDMKRSGCSIPQSAA showed a growth estimate of -0.231.
In the case of ESQST, the growth estimate is reported as < -0.25.
For RTGFFPIFRHVSLGSLSIGL, the growth estimate was < -0.25.
In the case of NRRLPESLS, the growth estimate is reported as < -0.25.
For PYLHMLNGRISRGLGI, the growth estimate was < -0.25.
For HITRAQQVIWATID, the growth estimate was < -0.25.
WRVSAQHM was tested, and the growth estimate was < -0.25.
In the case of LLQRRY, the growth estimate is reported as < -0.25.
QRINRSGALKQVNFIGWLVV was tested, and the growth estimate was < -0.25.
In the case of AHSWLRVGKLVSVRLRSPLV, the growth estimate is reported as -0.214.
With FGSIFESYAAAAGLLCGVTY the growth estimate was < -0.25.
In the case of INRHASGRIHWRCGLCVNRK, the growth estimate is reported as < -0.25.
With PLRHHCVVTHPPSDPFRHNV the growth estimate was < -0.25.
For QEPRYGAIRISS, the growth estimate was < -0.25.
In the case of VGQIGESSEQIRIGNVWVAV, the growth estimate is reported as < -0.25.
In the case of HLPTIKHRSEIPNQAPTLTA, the growth estimate is reported as < -0.25.
For NKGGEPRETTSTECPSRVVP, the growth estimate was < -0.25.
With ILL the growth estimate was < -0.25.
With GRRHEPFMVRTLWASVLA the growth estimate was < -0.25.
With HYWARPYNCVDKRK the growth estimate was < -0.25.
For PPFW, the growth estimate was < -0.25.
AGHLGKYASF was tested, and the growth estimate was < -0.25.
AILSLSVRGSGVRTPNEP showed a growth estimate of -0.243.
For ERARRIVDGRPRSLGRIRSG, the growth estimate was < -0.25.
In the case of QFPIPRTLGTE, the growth estimate is reported as < -0.25.
In the case of RGGLSSGSDTPPWLVPVGHE, the growth estimate is reported as < -0.25.
DVLVIKDNM was tested, and the growth estimate was < -0.25.
With GSHWTTGD the growth estimate was < -0.25.
With ALSLNCPL the growth estimate was < -0.25.
With LLSYYRGCMLRVCSGASRRA the growth estimate was < -0.25.
With SAGPNEKCLHNSALEPG the growth estimate was < -0.25.
With SYLNWGVW the growth estimate was < -0.25.
With KLLVKAIAWLCFVNSRGLTS the growth estimate was < -0.25.
In the case of VPAMLLGNTEKRGAGIRKQL, the growth estimate is reported as < -0.25.
With MFMGAPSASRRNMGLSNFIK the growth estimate was < -0.25.
In the case of YLGLRSSLVTNCKGFYKSY, the growth estimate is reported as < -0.25.
For DAHRVEP, the growth estimate was < -0.25.
In the case of SEGVWRLAQRQAVVLKRLGA, the growth estimate is reported as < -0.25.
WPIICDSKVN was tested, and the growth estimate was < -0.25.
In the case of RRDRLLRDAGQLGYTRLEVL, the growth estimate is reported as < -0.25.
For SGYWRGVRWLPITGELRVNR, the growth estimate was < -0.25.
With NLSNSPYRQKRLRLECSRKH the growth estimate was < -0.25.
LDMMLPK was tested, and the growth estimate was < -0.25.
DTVPCYRWDGSENRLAQGTL was tested, and the growth estimate was < -0.25.
For HLENRILLCHGQRWFHTPVC, the growth estimate was < -0.25.
NGSMYTASGCEHHKGSSNCS was tested, and the growth estimate was < -0.25.
Substance LRSPATEST has a growth estimate of -0.246.
For KGRLSKCAVLTCT, the growth estimate was < -0.25.
Substance LEKERSLNAYGWLSCLGGRV has a growth estimate of -0.183.
For HKRR, the growth estimate was < -0.25.
VVLIRILEEMDSQVGTVRPG was tested, and the growth estimate was < -0.25.
For PSFAPNLIVD, the growth estimate was -0.25.
With HDDIRNRVRSGLLRKVQPLP the growth estimate was < -0.25.
In the case of VIDLW, the growth estimate is reported as < -0.25.
With FSAIPS the growth estimate was < -0.25.
HLRCVCGIENFLLMGSQSLA was tested, and the growth estimate was < -0.25.
For INGET, the growth estimate was 0.058.
With SIMLN the growth estimate was < -0.25.
With HGGRRACLSCRISWWIIAVQ the growth estimate was < -0.25.
In the case of QESSHCYDLNLMKSRNPNSH, the growth estimate is reported as < -0.25.
In the case of GRGGCECQILERRINCSR, the growth estimate is reported as < -0.25.
For SVLSMVRVAE, the growth estimate was < -0.25.
In the case of RQAFGRDFAISRILGGFPSM, the growth estimate is reported as < -0.25.
With KILSGIPCTHSA the growth estimate was < -0.25.
VVLINPCSNRLHVGSSVPIS was tested, and the growth estimate was < -0.25.
In the case of GLVGL, the growth estimate is reported as < -0.25.
In the case of SLRPLLINCLIAFRPHGR, the growth estimate is reported as < -0.25.
With SRLTELLKHEVLSGTQVVGS the growth estimate was < -0.25.
With MRFIAVDGHCVVITSHGVPQ the growth estimate was < -0.25.
For VDTVRTYICSMP, the growth estimate was < -0.25.
In the case of RLLKGITRRLRAYSSR, the growth estimate is reported as < -0.25.
KAGMIKVCQFSPGFLEVDSV was tested, and the growth estimate was < -0.25.
With IPPFPAMQKRRSLSHTKFGA the growth estimate was < -0.25.
IEKRIPLAKSRTAISRF was tested, and the growth estimate was < -0.25.
SIGRKCNPMLL was tested, and the growth estimate was < -0.25.
With KVISLTKGRKVF the growth estimate was < -0.25.
LFTFQAASMF was tested, and the growth estimate was < -0.25.
GEQDRCG was tested, and the growth estimate was < -0.25.
For LLWPDAIDVGQMWLFY, the growth estimate was < -0.25.
For GSPMLSQLTSVANR, the growth estimate was < -0.25.
MRNRTHDAGHVSSHGHD was tested, and the growth estimate was < -0.25.
With KLSGPRHIFRMNELFGLRAR the growth estimate was < -0.25.
For QEPQRK, the growth estimate was < -0.25.
VLLYTARTISSG was tested, and the growth estimate was < -0.25.
DPLSDEGRETTISVFQTRDR was tested, and the growth estimate was < -0.25.
HTTLDFKLGGLVRSGFDCGS was tested, and the growth estimate was < -0.25.
GGKGVAPRRPSNCPRWDSY was tested, and the growth estimate was -0.246.
NAVPACTPDINLGHPARGRT was tested, and the growth estimate was < -0.25.
